Our source for the IC50 values is publication PMC3563301 (Journal of medicinal chemistry, 2012).

One may read the IC50 as the midpoint of a concentration-inhibition curve.

For assay [1], the system named is HeLa, HT29, A549, HCT 116, and HCT 15 cell lines. The experiment in a line: Average growth inhibition over five cell lines. The settings on record: Homo sapiens, read-out: average IC50 for the five cell lines. The assay is classed as cell-based.
The test system of assay [2] is MCF-7 human breast carcinoma cells. The experiment in a line: Growth inhibition of MCF-7 cells. The assay is classed as cell-based. The settings on record: MCF7, 96 h, read-out: MCF-7 IC50 ± SD.

As to `COc1cc2c(c(OC)c1OC)-c1ccc(OC)c(=O)cc1[C@@H](NC(C)=O)CC2` [Compound 1, colchicine], the figures for the IC50 in assay [1] and in assay [2] were 34 nM and 5 ± 1 nM, respectively.
